Assay results taken from patent publication US20150044237A1 (CENTRE NATIONAL DE LA RECHERCHE SCIENTIFIQUE, published 2015).
Results are given in words; binding and its absence hold for the method and conditions named. Some binding calls cover weakened binding; strength is not graded here.

Protein sequences, listed by entry. Tags and fused reporters are not part of them. Residues count along the entry.
UniProt P25445, residues 26-173: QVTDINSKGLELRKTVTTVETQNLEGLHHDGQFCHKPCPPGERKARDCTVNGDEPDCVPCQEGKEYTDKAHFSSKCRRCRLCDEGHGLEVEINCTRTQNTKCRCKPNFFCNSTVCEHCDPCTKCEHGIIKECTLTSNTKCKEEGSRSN

Assays:
[1] = molecular target: Recombinant Fas-Fc (R&Dsystems) (UniProt P25445); assay: SPR (BIAcore 3000), Fas-Fc immobilised on the chip, analyte at 100 nM (highest concentration tested) [2) C]
[2] = molecular target: Recombinant Fas-Fc (R&Dsystems) (UniProt P25445); assay: SPR (BIAcore 3000), Fas-Fc immobilised on CM5 chip

B1: IgFasL (ligand)
chain: IPDSQTKVFPQDKVILVGSDITFCCVSQEKVLSALIGHTNCPLIHLDGENVAIKIRNISVSASSGTNVVFTTEDNIFGTVISRALQKELAELRESTSQMHTASSLEKQIGHPSPPPEKKELRKVAHLTGKSNSRSMPLEWEDTYGIVLLSGVKYKKGGLVINETGLYFVYSKVYFRGQSCNNLPLSHKVYMRNSKYPQDLVMMEGKMMSYCTTGQMWARSSYLGAVFNLTSADHLYVNVSELSLVNFEESQTFFGLYKL
notes: also called pFasL; polymeric FasL
[1]
  binding: binds
[2]
  binding: binds
